# PubChem BioAssay AID2417 (National Center for Advancing Translational Sciences (NCATS), 2010)
# Screen size: about 140,000 compounds; about 4,300 (3.1%) were called active. This list was built around the results that the source calls inconclusive (neither active nor inactive); the mix of calls is not that of the screen.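 How the source made its calls: active means readout at or below -70, meaning at least 70% loss of cells showing the perinucleolar compartment, a nuclear body marking cancer cells; inconclusive means readout between -30 and a set limit; inactive means the rest.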
# Experiment: High Content Assay for Compounds that inhibit the Assembly of the Perinucleolar Compartment;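 further: plate controls were DMSO wells for no effect and camptothecin positive control wells for full effect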
# Conditions: PC3M PTB-GFP, PNC prevalence imaging, 16 h; at 10 µM; active compounds read low
# Summary of the method: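 PC3M cells stably expressing PTB-GFP, 750–1000 cells/well, treated 16 h at 37 °C with compound (23 nl of library stock), in duplicate. After paraformaldehyde fixation and Hoechst stain, imaged at 20x; PNC prevalence scored by image analysis.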
row,SMILES,"activity change (PNC), negative = inhibition"
1,Cc1c(N=C/C=C2/N(C)c3ccccc3C2(C)C)c(=O)n(-c2ccccc2)n1C,inconclusive: -51%
2,CCn1c2ccccc2c2cc(C3C(C#N)=C(N)Oc4n[nH]c(COC)c43)ccc21 (centres undefined),inconclusive: -33.9%
3,O=C(Cn1nc(-c2ccccc2)c2ccccc2c1=O)NCCN1CCOCC1,inconclusive: -35.7%
4,N#Cc1c2n(c(=S)n(-c3ccccn3)c1=O)CCCCC2,inconclusive: -44.4%
5,Cc1sc2nc3ccc(NCc4ccco4)nn3c(=O)c2c1C,inactive: 22.9%
6,Cc1cc(C(=O)N/N=C/c2cc(Br)ccc2OC(=O)c2ccccc2)n[nH]1,inactive: -23.6%
7,COc1c(Cl)cc(Cl)cc1C(=O)n1nc(C)cc1C,inconclusive: -42.6%
8,Fc1cccc(-n2ncc(-c3nnnn3-c3ccccc3)c2C(F)(F)F)c1,active: -84.4%
9,CN(c1cccc(NC(=O)CN(c2ccc(C34CC5CC(CC(C5)C3)C4)cc2)S(C)(=O)=O)c1)S(C)(=O)=O,inconclusive: -36.5%
10,CCN(CC)S(=O)(=O)c1cc(C(=O)Oc2ccccc2OC)ccc1OC,inactive: 14.1%
11,Cc1c(Br)c([N+](=O)[O-])nn1C(C)C(=O)Nc1c(C)n(C)n(-c2ccccc2)c1=O (centres undefined),inactive: 23.8%
12,Cc1ccc(-n2c(O)c(/C=N/n3cnnc3)c3ccccc3c2=O)cc1,inconclusive: -33.9%
13,CC1CCN(c2c(NCc3ccc(C(=O)N4CCc5ccccc54)cc3)c(=O)c2=O)CC1,inconclusive: -70%
14,O=C1CSC2(CCCCC2)N1CCO,inactive: 10.9%
15,COc1cc(C(=O)NNC(=S)NC(=O)c2ccccc2C)cc(OC)c1OC,inactive: -27.2%
16,CC(=O)NC1C(=O)N(CCc2ccccc2)c2ccc(Br)cc21 (centres undefined),inactive: 25.2%
17,CCOC(=O)c1c(NC(=O)CSc2nnc(-c3ccccc3)o2)sc(C(C)=O)c1C,inactive: -20.1%
18,CC(=NCCN1CCN(C(=S)Nc2ccccc2)CC1)C1=C(O)CC(C)(C)CC1=O,inactive: -16.2%
19,C=CCN=C1SC(CC)C(=O)N1S(=O)(=O)c1ccc(C)cc1 (centres undefined),inactive: -0.618%
20,CN1CCc2c(sc(/N=C/c3cccs3)c2C(N)=O)C1,inconclusive: -31.3%

# Taken from the listing (13 entries):
row,SMILES,"activity change (PNC), negative = inhibition"
3,O=C(Cn1nc(-c2ccccc2)c2ccccc2c1=O)NCCN1CCOCC1,inconclusive: -35.7%
4,N#Cc1c2n(c(=S)n(-c3ccccn3)c1=O)CCCCC2,inconclusive: -44.4%
5,Cc1sc2nc3ccc(NCc4ccco4)nn3c(=O)c2c1C,inactive: 22.9%
6,Cc1cc(C(=O)N/N=C/c2cc(Br)ccc2OC(=O)c2ccccc2)n[nH]1,inactive: -23.6%
7,COc1c(Cl)cc(Cl)cc1C(=O)n1nc(C)cc1C,inconclusive: -42.6%
8,Fc1cccc(-n2ncc(-c3nnnn3-c3ccccc3)c2C(F)(F)F)c1,active: -84.4%
9,CN(c1cccc(NC(=O)CN(c2ccc(C34CC5CC(CC(C5)C3)C4)cc2)S(C)(=O)=O)c1)S(C)(=O)=O,inconclusive: -36.5%
10,CCN(CC)S(=O)(=O)c1cc(C(=O)Oc2ccccc2OC)ccc1OC,inactive: 14.1%
11,Cc1c(Br)c([N+](=O)[O-])nn1C(C)C(=O)Nc1c(C)n(C)n(-c2ccccc2)c1=O (centres undefined),inactive: 23.8%
12,Cc1ccc(-n2c(O)c(/C=N/n3cnnc3)c3ccccc3c2=O)cc1,inconclusive: -33.9%
13,CC1CCN(c2c(NCc3ccc(C(=O)N4CCc5ccccc54)cc3)c(=O)c2=O)CC1,inconclusive: -70%
14,O=C1CSC2(CCCCC2)N1CCO,inactive: 10.9%
15,COc1cc(C(=O)NNC(=S)NC(=O)c2ccccc2C)cc(OC)c1OC,inactive: -27.2%

# More records.

row,SMILES,"activity change (PNC), negative = inhibition"
1,COc1cc(/C=N/NC(=O)c2ccc(O)cc2)ccc1Oc1ccc([N+](=O)[O-])cn1,inconclusive: -41.6%
2,CC1Cc2ccccc2N1C(=O)CSc1nc2ccccc2s1 (centres undefined),inconclusive: -48.1%
3,Cc1ccc2c(c1)[nH]c1c(N3CCN(Cc4ccccc4)CC3)ncnc12,inactive: -12.1%
4,CCCCn1c(-c2nonc2N)nc2ccccc21,inactive: 2.75%
5,C/C(=N\N=C\c1ccc(N(C)C)cc1)c1cccc([N+](=O)[O-])c1,inactive: 33.9%
6,Cc1ccc(Cn2nnc3c(=O)n(CC(=O)c4ccccc4)cnc32)cc1,inconclusive: -42.1%
7,COc1ccc(Oc2nc3c(c(=O)n(C)c(=O)n3C)n2Cc2cccc(OC)c2)cc1,inactive: -6.01%
8,CC(=O)c1sc(N/N=C\c2cccc(Br)c2)nc1C,active: -85.5%
9,c1coc(CNc2nc(N3CCCCC3)nc3ccccc23)c1,inconclusive: -34.2%
10,COCCN(C(=O)Cc1cccs1)C(C(=O)NCc1ccc(OC)cc1)c1ccccc1 (centres undefined),inconclusive: -44.7%
11,CC(C(=O)O)c1n[nH]c(=O)c2ccccc12 (centres undefined),inactive: 25.6%
12,O=c1[nH]cc([N+](=O)[O-])cc1Br,inconclusive: -33.8%
13,Cc1ccc(NCc2nnc(SCC(=O)Nc3cccc(O)c3)n2CC2CCCO2)c(C)c1 (centres undefined),inconclusive: -44.5%
14,CCc1ccc2[nH]c(=O)c(C(c3nnnn3CCOC)N3CCN(c4ccccc4F)CC3)cc2c1 (centres undefined),inconclusive: -41.7%
15,C/C(=C/C(=O)N1CCc2ccccc21)C(=O)O,inactive: -11%
16,COc1ccc(/C=N/N2CCOCC2)cc1O,active: -81.5%
17,COc1ccc(C2C(C(=O)N3CCOCC3)CCC(=O)N2c2ccc(OC)cc2)cc1 (centres undefined),inconclusive: -34%
18,COc1ccc(COC(=O)c2n[nH]c3ccccc23)cc1F,inconclusive: -40.8%
19,CCN(CC)C(c1ccc(C)cc1)c1nnnn1C1CCCCC1 (centres undefined),inconclusive: -44.5%
20,CCOC(=O)c1cc(-c2cccs2)nn1CCC#N,inconclusive: -50.4%

row,SMILES,"activity change (PNC), negative = inhibition"
1,N#Cc1cc2c(nc1SCc1ccccc1)CCCC2,inactive: 5.06%
2,CC(=O)c1ccc(NC(=O)CCC(=O)OCC(F)(F)C(F)F)cc1,inconclusive: -69.2%
3,c1ccc(-c2nnc(CSc3nnc(-c4cccs4)o3)o2)cc1,inactive: 24.1%
4,Cc1ccc(-c2nnc(SCC(=O)N3CCOCC3)nc2-c2ccc(C)cc2)cc1,inactive: -29.2%
5,CCNc1c(C(=O)O)ccc2c1C(=O)c1ccccc1C2=O,active: -84.6%
6,COc1ccc(C(=O)NNC(=O)Nc2ccc(C)cc2)cc1,inconclusive: -50.6%
7,Cc1nn(C)c(C)c1S(=O)(=O)N1CCc2ccccc21,inconclusive: -34.9%
8,CCC(c1nnnn1Cc1cccs1)N1CCN(c2nc3ccccc3s2)CC1 (centres undefined),inconclusive: -67.1%
9,CCOC(=O)CN1C(=N)N(c2nc(NC(C)C)nc(NC(C)C)n2)CC1=O,inactive: 58.3%
10,O=C(O)CCC1COc2ccccc2O1 (centres undefined),inconclusive: -42%
11,COC(=O)c1cn(C(=O)c2ccccc2F)nc1N,inconclusive: -53.2%
12,CC1CC(=O)C2=C(C1)Nc1ccccc1SC2c1ccc(F)cc1 (centres undefined),active: -85.3%
13,COc1ccc2[nH]c(C)c(C(=O)CN3CCc4cc(OC)c(OC)cc4C3)c2c1,inactive: -20.2%
14,CCNC(=O)CN(CCc1ccccc1)S(C)(=O)=O,inconclusive: -38.7%
15,COc1ccc(-c2cc(C3CC3)nc3sc(C#N)c(N)c23)cc1,inconclusive: -35.9%
16,Cc1cc(C)cc(N(CC(=O)NC2CC3CCC2C3)S(C)(=O)=O)c1 (centres undefined),inconclusive: -33.9%
17,Cc1ccc(C2CC2C(=O)NNC(=S)Nc2ccc(Cl)cc2)cc1 (centres undefined),active: -96.8%
18,CC1=Nn2c(nnc2-c2ccccn2)SC1,inconclusive: -41.7%
19,O=C(c1cc(-c2ccccn2)nc2ccc(Br)cc12)N1CCc2ccccc2C1,inconclusive: -71.1%
